In all, about 52,000 sequences went through this assay and about 210 (0.4%) were called active.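 How the source made its calls: active means gene whose silencing raises cell survival under the drug, median off-target-corrected z-score across its silencing RNAs 2 or more; inactive means the rest.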 Some of the results follow.
Experiment: Resistance to Poly (ADP-Ribose) Polymerase inhibitor: Gene Identification via Genome-wide siRNA Screen
Details: mouse BRCA2 R2336H ES cells, olaparib, CellTiter-Glo viability; hits give high values
Outline: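 Mouse BRCA2 R2336H ES cells were reverse-transfected with siRNA (20 nM final), treated at 48 h with 500 nM olaparib, and read by CellTiter-Glo after 72 h. Scores: MAD-based z per siRNA, median per gene, seed off-target correction.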
In the case of GCCCAGAUGGGUUAAUUUCTT against Fzd7, the z-score is reported as inactive: 0.746. With GCGUGUCAGGGAGUAUUACTT against Igbp1b the z-score was inactive: 1.09. With CCAGAUGGGCCCAAUGCAUTT against Ccl7 the z-score was inactive: -1.18. For CCUUUAUUUCUGUGAAUCUTT against Olfr1467, the z-score was inactive: 1.31. With GGUCGGAACUCAGUUUAUCTT against Abcg2 the z-score was inactive: 0.342. For CGGUUAUUGUACCUAAAGCTT against Olfr827, the z-score was inactive: 0.523. With “GGACCAUAAAUGAGACCCATT against Sulf2-pending” the z-score was inactive: -0.0958. In the case of GCUGAAAGUAUUCAUGUAATT against Sec13l1, the z-score is reported as inactive: -2.96. With GGGAAACAGAAGUAUCUAUTT against Ar the z-score was inactive: -0.616. For GGAAGAAAUGGACACCAGATT against Slc12a6, the z-score was inactive: 2.16. With CGGACAUAGUCCAUCAUUCTT against Aig1 the z-score was inactive: 1.65. With GCGUAAUUCCAGCAGAUGUTT against Mepe the z-score was inactive: -1.4. With CCUACAGUAUGUGGCAGAUTT against Grb7 the z-score was inactive: -1.69. For GGACAAUUUUGACGAGAUGTT against Tubg1, the z-score was inactive: -1.68. With GGAUGUAGAGAAAAUGAUCTT against LOC13909 the z-score was inactive: -0.291. With CCCUCAUCAAGGGCAUAGATT against Gpd1l the z-score was inactive: -1.39. For GCAAUCAUUUCUUCAUCUATT against Olfr148, the z-score was inactive: 1.54. For GCACAGUACCAUAACGGCUTT against Pbef1, the z-score was inactive: -1.21. With GCCUCUAUAUCUUUCACUGTT against Olfr1209 the z-score was inactive: -0.276. With GGAAAUGCCUAAUUUUCACTT against Snapc4 the z-score was inactive: 0.708. For CCGAAUAGUAGAUAUUAGATT against Zbtb1, the z-score was inactive: 0.12. For GGUCAUAUCUCACCUAAGUTT against Nxph3, the z-score was inactive: 0.179. For CCACCUCCAUCGAUGUUAUTT against Pamci, the z-score was inactive: -2.93. For GGGAGAUUAAUCAAGAACUTT against Ccnc, the z-score was inactive: 0.109. With CCGGGUCAGGACAAUUCAUTT against Hsd17b1 the z-score was active: 1.29. For CGUGUUGAUAACUUUAACGTT against Abca9, the z-score was inactive: 0.739. With GGGCCUUUAUGAGUCACACTT against H2-Aa the z-score was inactive: 0.0743. For GAAGCCUAAUCCCUUAAUCTT against Oas1g, the z-score was inactive: -0.581. With GCCACGUGAUAGUAAUAAATT against Psmd12 the z-score was inactive: 0.694. In the case of GCUUCUCAGACAAAUAUGGTT against S3-12, the z-score is reported as inactive: 0.617. In the case of GGUUAUUUCUGAAAUGUGCTT against Fbxl4, the z-score is reported as inactive: 0.381. In the case of GGAAACAUGGGUUUAUUUGTT against Bche, the z-score is reported as inactive: 0.142. With CCCACAGUUGCAAAUUGUGTT against Olfr804 the z-score was inactive: 0.137. For GGGUACAACUCUUUGAAGATT against Mnat1, the z-score was inactive: 0.446. With GGUGGACAACCAGUUCUACTT against Mapk10 the z-score was inactive: -0.405. For CCAAUGGUGUAAUUAGAAATT against Olfr571, the z-score was inactive: 0.143. For “GGAAAAAAUCAAGAGUGAATT against D0HXS9928E”, the z-score was inactive: -0.671. For GGUCAAAUCUCGACAAAUCTT against Ptprm, the z-score was inactive: 0.462. For “CGAUGACAGGAAAGUUCGATT against 9130211I03Rik”, the z-score was inactive: 0.0266. With GGCAUCCUUGUUCACAUCCTT against Zfy1 the z-score was inactive: 1. For GGAGAACACAAAAUCAUGGTT against Xrn2, the z-score was inactive: 3.03. With GGCCUCACAAAAGAACACCTT against Nppb the z-score was inactive: -0.13. In the case of “GGUCUCUGUCUCCAAGAAATT against 2810012G03Rik”, the z-score is reported as inactive: -0.0984. For GGACUUUCGAGACAAGCUGTT against Barhl1, the z-score was inactive: -1.1. With GGCAUUUAUGUCGAACAAGTT against Mbtd1 the z-score was inactive: -0.529. With CGUUCACUUUUGAAAACGUTT against Bysl the z-score was inactive: -0.147. With “GGGUUGUAGCAUUUAAUUATT against D17Ertd488e” the z-score was inactive: 0.139. For GCUUAUCCUGGGAAACUUCTT against Fcnb, the z-score was inactive: 0.562. In the case of GGAACUACCUUGUAAAAUUTT against Rbp7, the z-score is reported as inactive: -1.25. With GGUGUGCGCAGCAUCAAGATT against Guk1 the z-score was inactive: 1.6. In the case of “GGUAACCCUUACAGAUAUGTT against 4921507P07Rik”, the z-score is reported as inactive: -0.67. With GCGUAUGCUUUUGUGCACATT against Anapc7 the z-score was inactive: 0.341. In the case of GCUUAUCCAGUGUAUUGUGTT against Amfr, the z-score is reported as inactive: -0.838.

Reference: PubChem BioAssay AID1347423 (Functional Genomics Laboratory (NCATS/FGL), 2020)
